Measured values published in US20180362473A1, “BIOORTHOGONAL METHODS AND COMPOUNDS” (The University Court of the University of Edinburgh, priority 2013, published 2018).
Entries after “also recorded” stand apart in the source; their conditions may differ.

Assays:
[1] = Cell-free palladium mediated deprotection of prodrugs (HPLC/LCMS); conditions: 37° C.; for N-depropargylation by Pd^0-resins (FIG. 17): 100 μM drug precursor, 1 mg/mL Pd^0-resins in PBS
Protocol: FIG. 17 illustrates the palladium-mediated reactions of the drug precursors with Pd(0) under biocompatible conditions to form either 5FU, 1, or floxuridine, 8, in the table it is compiled the conversion percentages and resulting products after incubating each of the drug precursors (100 μM) with 1 mg/mL of Pd^0 -resins in PBS for 24 h at 37° C. (Thermomixer, shaker speed: 1,400 rpm), Values were calculated by HPLC using an UV detector.
To recreate a biocompatible scenario, prodrug-into-drug conversion was carried out at 37° C. in an isotonic solution with a physiologic pH. All-5FU, Pro-5FU and Bri-5FU (500 μM) were dissolved in phosphate buffered saline (“PBS”) (0.5 ml) with 0.5 mg of Pd^0 resin and shaken at 1400 rpm and 37° C. in a Thermomixer. Reaction crudes were monitored at 0 h, 7h, 24 h and 48 h using analytical HPLC (Agilent) or LCMS system (Agilent). Eluent A: water and formic acid (0.1%); eluent B: acetonitrile, formic acid (0.1%): A/B=95:5 to 5:95 in 3 min, isocratic 1 min, 5:95 to 95:5 in 1 min, isocratic 1 min with the UV detector at 280 nm.
For All-5FU and Bn-5FU, the prodrug (100 μM) and P^0-resin (1 mg/mL, [Pd^0]˜266 μM) were dispersed in 0.1% (vlv) DM80 in PBS and incubated for 48 h at 37° C.

[2] = Confirmation of heterogeneous catalytic mechanism (HPLC)
Protocol: N-depropargylation of Pro-5FU using sub-stoichiometric amounts of Pd^0 confirmed the catalytic nature of the reaction with the reaction proceeding to completion in 72 h.

[3] = 100 μM prodrug, Pd^0-resin 1 mg/mL, 0.1% DMSO in PBS, 48 h

Row | Compound | Pd^0-mediated conversion of prodrug into 5FU [1, 3] | N-depropargylation by Pd^0-resins (FIG. 17) ([1]; 24 h) | further results
1 | C=CCn1cc(F)c(=O)[nH]c1=O [All-5FU] | no significant reactivity; also recorded: relatively low levels of 5FU |  | 
2 | O=c1[nH]c(=O)n(Cc2ccccc2)cc1F [Bn-5FU] | relatively low levels of 5FU |  | 
3 | C#CCn1c(=O)[nH]cc(F)c1=O [Compound 6] |  | N-depropargylation at the 3-position | 
4 | C#CCn1cc(F)c(=O)n(CC#C)c1=O [Compound 7, 1,3-dipropargyl-5-fluorouracil] |  | N-depropargylation at both positions | 
5 | C#CCn1c(=O)c(F)cn([C@H]2CC(O)[C@@H](CO)O2)c1=O (some centres unmarked) [Compound 11, 3-propergyl-floxuridine] |  | effected | 
6 | C#CCn1cc(F)c(=O)[nH]c1=O [Pro-5FU] |  |  | Pd^0-mediated conversion of prodrug into 5FU ([1]; 500 μM prodrug, 0.5 mg Pd^0 resin in PBS (0.5 ml), 1400 rpm, 24 h): completely disappeared; conversion in micro-filtered PBS pre-incubated with Pd^0-resins ([2]; Pro-5FU 100 μM, 48 h incubation, solids removed (0.22 μm)): unreacted Pro-5FU as major mixture component; time for N-depropargylation to proceed to completion ([2]; sub-stoichiometric amounts of Pd^0): 72 h
